From article PMC11554538, “Region-independent active CNS net uptake of marketed H^+/OC antiporter system substrates” (Frontiers in Cellular Neuroscience, 2024)

Test: in vitro
Conditions: rat, plasma, pH 7.4, Unbound fraction in plasma, fu,plasma
Method: Equilibrium dialysis was employed to determine the fraction of unbound drug in plasma (fu,plasma), homogenates of whole-brain (fu,brain) and the CNS regions of interest (fu,ROI) including the frontal cortex, parietal cortex, cerebellum, striatum, hippocampus, and spinal cord. […] Briefly, a Teflon 96-well plate (model HTD96b, HTDialysis LLC, Gales Ferry, CT, USA) with a cellulose membrane with a 12–14 kDa molecular weight cutoff was used. The cellulose membrane was treated according to the recommendations from the manufacturer before starting the experiment (HTDialysis LLC, Gales Ferry, CT, USA). Fresh plasma (n=3 rats per drug) was obtained on the day of the experiment and the pH of the plasma was adjusted to 7.40 using H3PO4. […] Whole brain and CNS regions of interest (n = 3–4 rats per drug) were homogenized in 1:9 (w:v) PBS pH 7.40. Diluted brain samples were individually spiked to a final concentration of 1,000 nM. […] Drug recovery and thermostability in plasma and brain were analyzed in each experiment by sampling spiked samples before and after the 6-h incubation. […] The fraction of unbound drug in plasma was assessed as a ratio between buffer and plasma concentrations. The unbound fraction of drug in the diluted (D) CNS tissue homogenate (fu,hD) was calculated as: […]

- fraction unbound at 6 h: 0.389 ± 0.053
Structure (SMILES): CN(C)CCOC(c1ccccc1)c1ccccc1 [Diphenhydramine, diphenhydramine]
